Data from patent publication US20070112043A1, “Acylated and non-acylated imidazo[2,1-b]-1,3,4,-thiadiazole-2-sulfonamides, and uses thereof” (priority 2003, published 2007).
Some entries share one result that the patent states for a list of compounds.

Assay: Solubility in water and formulations
Details: PBS/10 wt/vol % HPCD (25:75)

CSCCC(N)C(=O)NS(=O)(=O)c1nn2cc(-c3ccccc3)nc2s1 (stereo not shown) [Compound 24]
solubility once neutralized: 4000 to 5000 µg/mL
